Source: ChEMBL document CHEMBL3988442, “University of Dundee, Small-Polar-MMV Screening Library” (2021).

Amino acid sequences for entries named in this document (tags omitted).
UniProt E9BF75, entry or part of it: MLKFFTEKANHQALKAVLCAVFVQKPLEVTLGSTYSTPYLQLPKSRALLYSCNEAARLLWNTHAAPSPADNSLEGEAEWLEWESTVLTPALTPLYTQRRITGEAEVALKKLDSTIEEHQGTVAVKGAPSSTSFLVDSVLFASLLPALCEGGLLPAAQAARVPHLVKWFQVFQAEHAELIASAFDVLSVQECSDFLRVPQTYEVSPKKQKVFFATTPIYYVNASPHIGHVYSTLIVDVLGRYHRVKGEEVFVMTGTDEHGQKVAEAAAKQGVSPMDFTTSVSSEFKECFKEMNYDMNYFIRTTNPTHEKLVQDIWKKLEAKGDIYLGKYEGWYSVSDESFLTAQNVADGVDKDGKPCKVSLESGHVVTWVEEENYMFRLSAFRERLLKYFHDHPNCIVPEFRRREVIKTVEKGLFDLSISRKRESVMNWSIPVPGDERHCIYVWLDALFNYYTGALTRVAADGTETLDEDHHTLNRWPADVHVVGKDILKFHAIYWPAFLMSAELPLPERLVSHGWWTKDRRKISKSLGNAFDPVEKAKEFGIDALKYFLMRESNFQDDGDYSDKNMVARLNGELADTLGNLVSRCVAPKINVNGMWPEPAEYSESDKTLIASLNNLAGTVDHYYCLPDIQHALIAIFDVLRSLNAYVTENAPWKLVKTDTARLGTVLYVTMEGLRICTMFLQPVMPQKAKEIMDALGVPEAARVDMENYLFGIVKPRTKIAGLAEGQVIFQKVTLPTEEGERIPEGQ

LdMetRS: 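Methionyl-tRNA synthetase (putative), Leishmania donovani (UniProt E9BF75). Primary screen of methionyl-tRNA synthetase; the read-out is not stated. The test concentration is not given. The values are filed as inhibition. Size under these conditions: about 68,000 compounds, about 24 of them at 50% or above in at least one test.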
Mtb heat-shock: 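Assay on Mycobacterium tuberculosis, filed only as a heat shock assay from Cornell; the read-out is not stated. The concentration is filed as 10 mM, unlikely as a test dose, so the dose is not known. Higher reads as stronger inhibition (inferred: compounds with an IC50 in retests scored well above the rest). Size under these conditions: about 69,000 compounds, about 930 of them at 50% or above in at least one test.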

All values are in %. The controls that fix the scale are not given in the record; negative values are as filed. This is an unselected part of the compounds tested. A dash means the value is not listed here; it may have been measured.

Compound | LdMetRS | Mtb heat-shock
CCc1[nH]ncc1C(=O)N1CCCC(n2cc(C)cn2)C1 (stereo not given) | 12.65 | -10.5
CN1CCC(c2cccc(-c3cccc(C(=O)O)c3)n2)CC1 | 13.92 | 2.631
CN(C)c1cc(C2CCCN(Cc3cnn(C)c3)C2)ccn1 (stereo not given) | 9.006 | -6.088
Cc1oncc1C(=O)NCc1cc(=O)n2c(n1)CN(C(C)C)CCC2.O=C(O)C(F)(F)F | - | -32.5
COCCOc1ccccc1NC(C)C(=O)NC(=O)NC(C)(C)C (stereo not given) | 11.54 | -10.07
O=C(Cn1ccc2ccccc21)N1CCC(Oc2cnccn2)CC1 | 15.11 | 8.09
Cc1ccccc1CNc1ccc(S(N)(=O)=O)c(C(F)(F)F)c1 | 11.06 | 3.905
O=C(Nc1cccnc1)C1CN(C(=O)c2ccc3c(c2)OCO3)C1 | 18.04 | -8.211
CS(=O)(=O)c1ccc(OCCNCc2cccc(Cl)c2)cc1 | 5.674 | -20.78
Cc1ccc(C(=O)NC2CCN(Cc3noc(CC(C)C)n3)CC2)s1 | 5.512 | 4.771
Cc1cc(C(=O)N[C@@H]2CCC[C@@H](N3CCOCC3)[C@@H]2O)no1 | 13.83 | 5.208
CC(C)C(=O)NCCNc1nccc(-c2cc(C(=O)O)ccn2)n1 | 17.24 | 5.511
CCc1ccc(CNC(=O)NCc2nnc3n2CCC3)s1 | 10.29 | -24.13
O=C1NCCCC[C@@H]1NC(=O)C1(N2CCCCC2)Cc2ccccc2C1 | 16.91 | 5.869
[H][C@]12CCCC(N(C)Cc3ccncc3)[C@@]1([H])CN(c1ncccn1)C2 (stereo not given in full) | - | -23.64
COc1cccc(CNC(=O)CN2CCCCC2Cn2cccn2)c1 (stereo not given) | 16.67 | -1.633
Cc1nn(C)cc1-c1cc(C(=O)NCC(C)(C)c2ccccc2F)n[nH]1 | 1.869 | 7.941
CN(C)C(=O)N1C[C@@H](C(=O)NCc2ccco2)C[C@H]2OCC[C@H]21 | -0.274 | -
CCCN1C(=O)CC(N2CCN(c3ccc(F)cc3)CC2)C1=O (stereo not given) | 1.408 | -0.006118
Cc1nccc(-c2cccc(NCC(=O)N3CCNC3=O)c2)n1 | 18.9 | -1.503
COc1ccc(CN2CCC3(CC2)CCN(CC(C)C)C3=O)cc1 | 5.724 | -
Cc1cc(CN2CCC(N(C)Cc3noc(C4CC4)n3)C2)on1 (stereo not given) | 8.947 | -14.8
CN(Cc1cccnc1)Cc1cn2c(n1)CN(C1CCOCC1)CC2 | 15.23 | -24.64
CC(C)c1nc2n(n1)CC(NCc1nc(-c3ccccn3)no1)CC2 (stereo not given) | 11.34 | 11.27
CCn1ccnc1CN1CCN(CCCS(C)(=O)=O)CC1C (stereo not given) | 4.632 | -10.62
COCCN1CCCC12CCCN(c1nncs1)C2 (stereo not given) | 5.674 | 14.79
CCS(=O)(=O)N(C)CC(=O)Nc1ccc(Br)cn1 | 14.69 | -11.59
Cc1cnn(C2(C(=O)O)CCN(Cc3oc4ccccc4c3C)CC2)c1 | 2.801 | -0.5118
COC1COC2(CCN(Cc3ccc4ccccc4n3)CC2)C1 (stereo not given) | 21.61 | -
COCC(=O)N1CCCC1c1cc(Nc2nnc(C)s2)nc(C)n1 (stereo not given) | 8.711 | -13.36
CN(C)CC1CN(Cc2ccc(F)cc2)Cc2nccn2C1.O=C(O)C(F)(F)F.O=C(O)C(F)(F)F (stereo not given) | - | -9.809
CN(C)CCN(C)C(=O)c1cnc2c(c1)nc(-c1ccccc1Cl)n2C | 17.47 | -0.03319
CC(C)C(=O)NCCc1nc(-c2ccncc2)n[nH]1 | 6.395 | -6.114
CCCN1CC2(CCN(C)CC2)CC1C(=O)NCCn1cccn1 (stereo not given) | 14.34 | -23.58
CCCNC(=O)c1nc2c(o1)CN(C(C)=O)C2 | 12.38 | 8.715
CN(C)C[C@H]1C[C@@H]2CN(Cc3ccoc3)C[C@@H]2O1 | 12.32 | -
CCc1nnc(CNC2CCCN(Cc3noc(C4CC4)n3)C2)o1 (stereo not given) | 17.13 | 8.271
CC(C)c1nnc2n1CCN(C(=O)c1cnc(C3CC3)s1)C2 | 5.903 | 7.075
O=C(O)C(F)(F)F.O=C(O)C(F)(F)F.[H][C@@]12CN(Cc3ccc(F)cc3)C[C@]1([H])OCCN2CC1CCCO1 (stereo not given in full) | - | -48.55
CC1N(c2cnn(C)c2)C(=O)COC12CCN(Cc1ccco1)CC2 (stereo not given) | 7.143 | -
O=C(c1ccc(N2CCCCCC2)nn1)N1CCc2ccccc21 | -1.987 | -2.219
COc1ccc(N2CCN(C(=O)CCn3nccc3C)CC2(C)C)cc1 | 5.301 | 18.55
Cc1ccc2c(c1)C(=O)NCC1(CCN(C(=O)c3csc(C)c3)CC1)O2 | 13.59 | -7.907
CC(=O)NCCNC(=O)c1sc(-c2ccc(Cl)cc2)nc1C | 7.302 | 14.65
Cc1nc(COc2ccc(OCC(N)=O)cc2)oc1C | 8.361 | -25.12
O=C(O)C(F)(F)F.O=C(O)C(F)(F)F.[H][C@]12CCC[C@@H](CN(C)C3CC3)[C@@]1([H])CN(Cc1ccc(OC)nc1)C2 | - | -18.52
CN(Cc1cc[nH]n1)C(=O)c1cccc(CCC(C)(C)O)c1 | 14.63 | 14.01
CC(C)CN1CCS(=O)(=O)[C@@H]2CCN(S(=O)(=O)C3CC3)CC[C@@H]21 | 6.574 | -
c1ccc2nc(NCC3(N4CCOCC4)CCSC3)cnc2c1 (stereo not given) | 5.707 | -21.61
Cc1cc(-c2nn3c(C)nnc3s2)n[nH]1 | -5.025 | -16.11
CCS(=O)(=O)N1CC[C@@H]2[C@H]1CCC(=O)N2CCOC | 10.39 | -
C[C@@H]1CN(c2nc(N)nc3c2CCC3)C[C@]1(C)O | 10.65 | 14.7
CCc1[nH]c2c(CNC(=O)C3CCCN(C)C3)cc(C)cc2c1C (stereo not given) | 10.05 | -0.9534
Cc1ccn(-c2ccc(NCc3ccnc(N4CCCCC4)c3)nn2)n1 | 14.17 | 14.89
COc1c(C)cnc(CN(C)C(=O)c2cccc(NC(N)=O)c2)c1C | 9.722 | -3.489
CN1CCN(C(=O)c2ccc(=O)n(C)c2)Cc2ccccc21 | 12.38 | -3.869
CO[C@H]1CN(C(=O)c2ccc(-c3ccccc3)[nH]2)CC[C@H]1N | 20.63 | -16.43
COc1cc(NCCNC(=O)c2ccc3[nH]ccc3c2)cc(OC)c1 | 16.17 | 10.91
CSc1nc2ncc3c(=O)n(C)ccc3n2n1 | 18.16 | 2.268
COc1ccc(CCNC(=O)NC2CC(=O)N(c3ccccc3)C2)cc1 (stereo not given) | -4.545 | -17.04
CNc1nc(C(=O)N2CCCn3nc(C(=O)N4CCCC4)cc3C2)cs1 | 17.78 | 12.03
CCOCCOc1ccc(S(=O)(=O)N2CCc3c(nc[nH]c3=O)C2)cc1 | 17.76 | 1.247
Cc1sc(N)nc1-c1ccc(Cl)cc1 | 10.08 | -39.93
O=C(NCc1cnc2n1CCN(CC1CC1)CC2)C1CCC1 | 16.73 | 8.237
Cc1noc(C2CCN(C(=O)c3ccc(NC4CC4)nc3)CC2)n1 | 9.202 | -4.313
CN(CCCO)C(=O)c1cc(COc2ccc3c(c2)CCCC3)on1 | 11.58 | -32.48
O=C(NCCC1COc2ccccc2O1)c1ccc(-c2cc[nH]n2)nc1 (stereo not given) | 15.86 | 26.18
CCCNC(=O)C(C)NC(=O)CCc1ccccc1Br (stereo not given) | 12.39 | 14.54
O=C([C@@H]1CCO[C@@H]2CCN(CC3CCOCC3)C[C@H]21)N1CCCO1 | 7.781 | -
CC(=O)N1Cc2ccnn2CC(C(=O)NCc2cccnc2)C1 (stereo not given) | 13.51 | -
OCC(O)CSCc1cn(-c2ccc(Cl)cc2)nn1 (stereo not given) | 11.33 | 5.877
c1cncc(OCc2nc(C3CC3)nn2-c2ccc3c(c2)OCCO3)c1 | 2.721 | -24.65
COCCN1CC(C(=O)N(CCN(C)C)Cc2ccc(C)s2)CC1=O (stereo not given) | 17.35 | -9.299
CCN1CCN(C(=O)c2cccc(CN3CCOCC3)c2)CC1 | 8.451 | 3.46
[H][C@]12CC[C@]([H])(CN(S(=O)(=O)c3ccccc3)C1)N(Cc1cscn1)C2=O | - | -0.5257
CN(C)c1ncc2c(n1)C1(CCN(Cc3ccccc3)C1)COC2.O=C(O)C(F)(F)F (stereo not given) | - | -13.71

Some entries from above, unchanged:

| Compound | LdMetRS | Mtb heat-shock |
|---|---|---|
| `CCCN1C(=O)CC(N2CCN(c3ccc(F)cc3)CC2)C1=O` (stereo not given) | 1.408 | -0.006118 |
| `CC(=O)N1Cc2ccnn2CC(C(=O)NCc2cccnc2)C1` (stereo not given) | 13.51 | - |
| `CC(=O)NCCNC(=O)c1sc(-c2ccc(Cl)cc2)nc1C` | 7.302 | 14.65 |
| `CN(C)C[C@H]1C[C@@H]2CN(Cc3ccoc3)C[C@@H]2O1` | 12.32 | - |
| `C[C@@H]1CN(c2nc(N)nc3c2CCC3)C[C@]1(C)O` | 10.65 | 14.7 |
| `CN(C)CCN(C)C(=O)c1cnc2c(c1)nc(-c1ccccc1Cl)n2C` | 17.47 | -0.03319 |